Experimental data published in the supplement of paper PMC7877785.
± gives the uncertainty stated by the source. Many entries were measured with a wide error.

Test: self-splicing fitness, log relative to wild type (ln ratio); higher = more splicing; Tetrahymena group I intron in knt gene, E. coli kanamycin selection, DiMSum; sequences stand for … in CUCUCU…GGAGGGAAAAGUUAUCAGGCAUGCACCUGGUAGCUAGUCUUUAAACCAAUAGAUUGCAUCGGUUUAAAAGGCAAGACCGUCAAAUUGCGGGAAAGGGGUCAACAGCCGUUCAGUACCAAGUCUCAGGGGAAACUUUGAGAUGGCCUUGCAAAGGGUAUGGUAAUAAGCUGACGGACAUGGUCCUAACCACGCAGCCAAGUCCUAAGUCAACAGAUCUUCUGUUGAUAUGGAUGCAGUUCACAGACUAAAUGUCGGUCGGGGAAGAUGUAUUCUUCUCAUAAGAUAUAGUCGGACCUCUCCUUAAUGGGAGCUAGCGGAUGAAGUGAUGCAACACUGGAGCCGCUGGGAACUAAUUUGUAUGCGAAAGUAUAUUGAUUAGUUUUGGAGUACUCGUGGUCG
How it was run: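 A randomised library covering all eight P1ex-region intron nucleotides was built with the intron in the knt kanamycin-resistance gene on pET-22b(+) and held in E. coli BL21(DE3). Cells were grown overnight at 37°C or 30°C on LB agar, with or without 25 μg/mL kanamycin, plus 100 μg/mL carbenicillin, 50 μM IPTG and 0.2% rhamnose, and pooled colonies were amplicon-sequenced on an Illumina HiSeq 2500. DiMSum fitness is the error-weighted combination of wild-type-normalised replicate fold changes, kanamycin versus none.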

GUAUAGCAAUAUUACGACUG
self-splicing fitness (ln) (30 °C): -2.88 ± 0.33 | self-splicing fitness (ln) (37 °C): -2.23 ± 0.33

AGACAGCAAUAUUACGCCGC
self-splicing fitness (ln) (30 °C): -4.4 ± 1

UCCAAGCAAUAUUACGACCG
self-splicing fitness (ln) (30 °C): -2.51 ± 0.56

CAUGAGCAAUAUUACGGCCA
self-splicing fitness (ln) (30 °C): -3.34 ± 1

GACGAGCAAUAUUACGCUUC
self-splicing fitness (ln) (30 °C): -1.69 ± 0.93 | self-splicing fitness (ln) (37 °C): -0.78 ± 0.61

CAUUAGCAAUAUUACGCAAA
self-splicing fitness (ln) (30 °C): -3.07 ± 0.53

GGUAAGCAAUAUUACGAAUU
self-splicing fitness (ln) (30 °C): -1.04 ± 0.11 | self-splicing fitness (ln) (37 °C): -0.205 ± 0.14

CUCUAGCAAUAUUACGCGCA
self-splicing fitness (ln) (30 °C): -4.4 ± 1 | self-splicing fitness (ln) (37 °C): -3.04 ± 0.61

AGUAAGCAAUAUUACGUGUA
self-splicing fitness (ln) (30 °C): -2.16 ± 0.12 | self-splicing fitness (ln) (37 °C): -1.8 ± 0.13

UCCAAGCAAUAUUACGAUCC
self-splicing fitness (ln) (30 °C): -2.5 ± 0.5

UUUGAGCAAUAUUACGCCAU
self-splicing fitness (ln) (30 °C): -3.71 ± 0.52 | self-splicing fitness (ln) (37 °C): -1.79 ± 1.2

GAUGAGCAAUAUUACGCCAU
self-splicing fitness (ln) (37 °C): -3.16 ± 0.6

AUUGAGCAAUAUUACGCCCG
self-splicing fitness (ln) (37 °C): -2.22 ± 0.63

AAUAAGCAAUAUUACGGAUG
self-splicing fitness (ln) (30 °C): -2.21 ± 0.1 | self-splicing fitness (ln) (37 °C): -1.39 ± 0.1

ACUGAGCAAUAUUACGAACC
self-splicing fitness (ln) (37 °C): 0.393 ± 0.83

AGGGAGCAAUAUUACGUCUG
self-splicing fitness (ln) (30 °C): -4.84 ± 0.59

GUCUAGCAAUAUUACGGUAG
self-splicing fitness (ln) (30 °C): -4.71 ± 1

AUCGAGCAAUAUUACGGAUG
self-splicing fitness (ln) (30 °C): -4.14 ± 0.59

CUGAAGCAAUAUUACGAUCC
self-splicing fitness (ln) (37 °C): -2.36 ± 0.78

UUCGAGCAAUAUUACGGGCG
self-splicing fitness (ln) (30 °C): -2.45 ± 0.2 | self-splicing fitness (ln) (37 °C): -1.01 ± 0.18

GGGAAGCAAUAUUACGCACC
self-splicing fitness (ln) (37 °C): -0.594 ± 0.78

ACAGAGCAAUAUUACGACCC
self-splicing fitness (ln) (30 °C): -3.57 ± 1 | self-splicing fitness (ln) (37 °C): -1.64 ± 0.68

CCGAAGCAAUAUUACGGAUA
self-splicing fitness (ln) (30 °C): -4.55 ± 0.59

AGUGAGCAAUAUUACGCCCU
self-splicing fitness (ln) (30 °C): 0.511 ± 0.55 | self-splicing fitness (ln) (37 °C): 0.635 ± 0.61

CUUGAGCAAUAUUACGCCCG
self-splicing fitness (ln) (37 °C): -2.25 ± 0.78

UUUUAGCAAUAUUACGCCCG
self-splicing fitness (ln) (37 °C): -0.315 ± 0.52

CGUAAGCAAUAUUACGGUGG
self-splicing fitness (ln) (30 °C): -1.48 ± 0.082 | self-splicing fitness (ln) (37 °C): -1.25 ± 0.11

AAAUAGCAAUAUUACGGGGA
self-splicing fitness (ln) (30 °C): -3.71 ± 0.25 | self-splicing fitness (ln) (37 °C): -2.86 ± 0.19

GUGGAGCAAUAUUACGGCGG
self-splicing fitness (ln) (30 °C): -3.32 ± 0.29 | self-splicing fitness (ln) (37 °C): -1.54 ± 0.27

UACUAGCAAUAUUACGAGCU
self-splicing fitness (ln) (37 °C): -2.26 ± 0.54

UCACAGCAAUAUUACGCCUC
self-splicing fitness (ln) (37 °C): -2.85 ± 0.61

UUUGAGCAAUAUUACGUUAC
self-splicing fitness (ln) (30 °C): 0.271 ± 0.82 | self-splicing fitness (ln) (37 °C): -2.83 ± 0.54

GGUGAGCAAUAUUACGAAGA
self-splicing fitness (ln) (37 °C): -2.76 ± 1.1

CUCAAGCAAUAUUACGACCA
self-splicing fitness (ln) (30 °C): -3.59 ± 0.52

UUCGAGCAAUAUUACGUACC
self-splicing fitness (ln) (30 °C): -3 ± 0.62 | self-splicing fitness (ln) (37 °C): -1.29 ± 0.58

GCCGAGCAAUAUUACGCCCG
self-splicing fitness (ln) (30 °C): -2.68 ± 0.26 | self-splicing fitness (ln) (37 °C): -2.41 ± 0.56

CUGCAGCAAUAUUACGAUGG
self-splicing fitness (ln) (30 °C): -1.7 ± 0.08 | self-splicing fitness (ln) (37 °C): -1.18 ± 0.1

CAAGAGCAAUAUUACGAAAU
self-splicing fitness (ln) (30 °C): -4.31 ± 1 | self-splicing fitness (ln) (37 °C): -2.79 ± 0.65

GUAUAGCAAUAUUACGGCAC
self-splicing fitness (ln) (37 °C): -0.152 ± 0.53

UCCUAGCAAUAUUACGCUGC
self-splicing fitness (ln) (30 °C): -4.05 ± 1

UCGCAGCAAUAUUACGCCGC
self-splicing fitness (ln) (30 °C): -3.27 ± 1.1

CGUUAGCAAUAUUACGGCUC
self-splicing fitness (ln) (30 °C): -1.75 ± 0.33 | self-splicing fitness (ln) (37 °C): 0.277 ± 0.22

UUCGAGCAAUAUUACGAGUA
self-splicing fitness (ln) (30 °C): -1.57 ± 0.15 | self-splicing fitness (ln) (37 °C): -1.43 ± 0.18

CUAAAGCAAUAUUACGACGC
self-splicing fitness (ln) (30 °C): -3.72 ± 1

GAAAAGCAAUAUUACGUGCU
self-splicing fitness (ln) (30 °C): -1.8 ± 0.098 | self-splicing fitness (ln) (37 °C): -0.978 ± 0.1

CCAGAGCAAUAUUACGGCAU
self-splicing fitness (ln) (30 °C): -3.94 ± 0.6 | self-splicing fitness (ln) (37 °C): -2.9 ± 0.74

GCUUAGCAAUAUUACGGGGC
self-splicing fitness (ln) (30 °C): -3.39 ± 0.74

GGAGAGCAAUAUUACGCACA
self-splicing fitness (ln) (30 °C): -2.74 ± 0.67

CUUAAGCAAUAUUACGAACU
self-splicing fitness (ln) (30 °C): -3.96 ± 0.76

GCAAAGCAAUAUUACGAUCG
self-splicing fitness (ln) (30 °C): -1.52 ± 0.067 | self-splicing fitness (ln) (37 °C): -0.0765 ± 0.091

AUGGAGCAAUAUUACGAAGA
self-splicing fitness (ln) (30 °C): -2.89 ± 0.58

GGUAAGCAAUAUUACGAGCC
self-splicing fitness (ln) (30 °C): -4.94 ± 1

AUCGAGCAAUAUUACGCACG
self-splicing fitness (ln) (30 °C): -2.59 ± 0.52 | self-splicing fitness (ln) (37 °C): -2.25 ± 0.56

UAGUAGCAAUAUUACGAAAC
self-splicing fitness (ln) (30 °C): -4.04 ± 0.74

AUUGAGCAAUAUUACGGAGG
self-splicing fitness (ln) (37 °C): -2.95 ± 0.74

AACGAGCAAUAUUACGCCCA
self-splicing fitness (ln) (30 °C): -2.09 ± 1 | self-splicing fitness (ln) (37 °C): 0.659 ± 1.2

AGGGAGCAAUAUUACGCACA
self-splicing fitness (ln) (30 °C): -2.15 ± 0.56 | self-splicing fitness (ln) (37 °C): -0.47 ± 0.67

CUCGAGCAAUAUUACGAGGA
self-splicing fitness (ln) (37 °C): -2.7 ± 0.62

UUAGAGCAAUAUUACGAGCC
self-splicing fitness (ln) (37 °C): -0.785 ± 0.93
